Source: US5874308A, “Compositions and methods for modulating cell proliferation using growth factor-polysaccharide binding fusion proteins” (priority 1996, dated 1999)

Test system: SLF dependent bone marrow cell line B6SUtA1
Experiment: MTT proliferation assay of SLF-CBD in solution or bound to BMCC
Format: cell-based
Method: Samples of purified SLF-CBD were diluted in H-SFM. […] In experiments where BMCC was used, 50 μl of a BMCC suspension in H-SFM was added to each well, and in experiments where no BMCC was used 50 μl of H-SFM alone was added.
Statistical analysis of data was carried out with regression curve fitting in two iterations using non-linear regression analysis from the GraFit version 3.0 statistical analysis program (Erithacus Software Ltd., Staines, U.K.).

[1] = BMCC constant at 1 μg/ml, about 2000 pM SLF-CBD

B1: SLF-CBD: fusion protein: extracellular domain of murine steel factor linked to the cellulose binding domain of Cellulomonas fimi exoglucanase Cex (protein)
chain: KEICGNPVTDNVKDITKLVANLPNDYMITLNYVAGMDVLPSHCWLRDMVIQLSLSLTTLLDKFSNISEGLSNYSIIDKLGKIVDDLVLCMEENAPKNIKESPKRPETRSFTPEEFFSIFNRSIDAFKDFMVASDTSDCVLSSTLGPEKDSRVSVTKPFMLPPVAASSLRNDSSSSNRKAAKAPEDSGLQPTPTPTTPTPTPTTPTPTPTSGPAGCQVLWGVNQWNTGFTANVTVKNTSSAPVDGWTLTFSFPSGQQVTQAWSSTVTQSGSAVTVRNAPWNGSIPAGGTAQFGFNGSHTGTNAAPTAFSLNGTPCTVG
- density of SLF-CBD on the BMCC surface at maximal effect of BMCC (130 pM with 1 μg/ml and 1500 pM with 44 μg/ml BMCC, 1.22 cm^2 per μg BMCC): about 4×10^10 molecules/cm^2
- SLF-CBD density at maximum stimulatory activity [1]: 7×10^11 molecules per cm^2
- SLF-CBD density relative to estimated receptor density on the cell surface [1]: about 60 times
- relative density of SLF-CBD vs c-kit receptor density on cell membrane at maximal effect of matrix (receptor density estimate 1.1×10^10 per cm^2): four times
